PubChem BioAssay AID652259 | Drosophila RNAi Screening Center, 2013

Aim: 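Knock-downs that push a Wingless-driven reporter up or down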 (primary screen)
System: Drosophila clone 8 imaginal disc epithelial cells
Reagent: long dsRNA against Drosophila genes
Challenge: pathway stimulated by co-transfected Wingless expression plasmid
Detection: 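Firefly luciferase from a tcf-site Wingless reporter, measured alongside co-transfected Renilla luciferase that tracks transfection; pathway stimulated by a Wingless plasmid; the firefly-to-Renilla ratio is not deposited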
Reading the numbers: firefly reporter light: higher = more Wg reporter light, before normalisation; Renilla control light: higher = more transfected or surviving cells
Hit rule: 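Strong candidates differ from their plate mean by at least two out of four per-plate statistical tests; weak candidates meet just one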
Calls: active = candidate regulator (raises or lowers reporter); inactive = not a candidate
The deposit covers about 22,000 reagents; this is an unselected part of those that have a named target and a result. In the full data, 233 (1.1%) got an active call. 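Light values are raw, unnormalised plate reads; the ratio scores behind the reporter calls were not deposited.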 Reagents against one gene are numbered here. No sequences are given here. The record does not give: the amount of reagent, the time to read-out, the dose of the treatment.

With knock-down of CG6749 (GeneID 39144) the results were firefly reporter light, replicate 1 = 7239; Renilla control light, replicate 1 = 2635; inactive.
With knock-down of CG17028 (GeneID 39741) the results were firefly reporter light, replicate 1 = 5493; Renilla control light, replicate 1 = 2441; inactive.
Against Ufc1 (GeneID 36762), the values are firefly reporter light, replicate 1 = 11719; Renilla control light, replicate 1 = 3729; inactive.
Depletion of CG11345 (GeneID 38548) gave: firefly reporter light, replicate 1 = 3809; firefly reporter light, replicate 2 = 10289; Renilla control light, replicate 1 = 2184; Renilla control light, replicate 2 = 4997; inactive.
Gk2 (GeneID 38221) gave firefly reporter light, replicate 1 = 14524; Renilla control light, replicate 1 = 3436; inactive.
With knock-down of pbl (GeneID 38879), the screen gave firefly reporter light, replicate 1 = 5895; Renilla control light, replicate 1 = 2051; inactive.
Against E(spl)malpha-BFM (GeneID 43153), the values are firefly reporter light, replicate 1 = 22849; Renilla control light, replicate 1 = 12892; inactive.
Knock-down of D1 (GeneID 41095) came out at: firefly reporter light, replicate 1 = 7324; Renilla control light, replicate 1 = 2435; inactive.
Against GlcT (GeneID 37516), the values are firefly reporter light, replicate 1 = 9574; Renilla control light, replicate 1 = 2856; inactive.
CG32568 (GeneID 32659) scored firefly reporter light, replicate 1 = 21593; Renilla control light, replicate 1 = 8304; inactive.
With knock-down of tst (GeneID 42813), the screen gave firefly reporter light, replicate 1 = 1691; firefly reporter light, replicate 2 = 4059; Renilla control light, replicate 1 = 1381; Renilla control light, replicate 2 = 1430; inactive.
Against Srp54k (GeneID 38593), the values are firefly reporter light, replicate 1 = 1312; firefly reporter light, replicate 2 = 7916; Renilla control light, replicate 1 = 989; Renilla control light, replicate 2 = 2793; inactive.
Knock-down of CG8329 (GeneID 39123) came out at: firefly reporter light, replicate 1 = 5105; Renilla control light, replicate 1 = 2637; inactive.

2 neighbouring reagents from above:
Srp54k (GeneID 38593) | firefly reporter light, replicate 1: 1312; firefly reporter light, replicate 2: 7916; Renilla control light, replicate 1: 989; Renilla control light, replicate 2: 2793; Call: inactive
CG8329 (GeneID 39123) | firefly reporter light, replicate 1: 5105; Renilla control light, replicate 1: 2637; Call: inactive

Additional entries:
Knock-down of Mal-A4 (GeneID 35827) resulted in: firefly reporter light, replicate 1 = 3206; firefly reporter light, replicate 2 = 8704; Renilla control light, replicate 1 = 705; Renilla control light, replicate 2 = 2509; inactive.
With knock-down of Ndae1 (GeneID 34005) #1, the record shows firefly reporter light, replicate 1 = 18711; Renilla control light, replicate 1 = 10544; inactive.
Depletion of Ndae1 (GeneID 34005) #2 gave: firefly reporter light, replicate 1 = 10214; Renilla control light, replicate 1 = 4426; inactive.
Against CG6414 (GeneID 31352), the entry reads firefly reporter light, replicate 1 = 13991; Renilla control light, replicate 1 = 6960; inactive.
Against CG18731 (GeneID 59246) the deposit lists firefly reporter light, replicate 1 = 7264; Renilla control light, replicate 1 = 4164; inactive.
CG32428 (GeneID 50105) #1 gave firefly reporter light, replicate 1 = 2009; Renilla control light, replicate 1 = 582; inactive.
Silencing of CG32428 (GeneID 50105) #2 came out at: firefly reporter light, replicate 1 = 12704; Renilla control light, replicate 1 = 4757; inactive.
After knock-down of Sys1 (GeneID 41023), the screen gave firefly reporter light, replicate 1 = 15464; Renilla control light, replicate 1 = 3925; inactive.
Depletion of CSN8 (GeneID 49077) resulted in: firefly reporter light, replicate 1 = 14170; Renilla control light, replicate 1 = 5024; inactive.
hbn (GeneID 47894) #1 gave firefly reporter light, replicate 1 = 2129; firefly reporter light, replicate 2 = 4836; Renilla control light, replicate 1 = 171; Renilla control light, replicate 2 = 386; inactive.
hbn (GeneID 47894) #2 showed firefly reporter light, replicate 1 = 4450; firefly reporter light, replicate 2 = 8968; Renilla control light, replicate 1 = 1020; Renilla control light, replicate 2 = 4225; inactive.
With knock-down of hbn (GeneID 47894) #3, the record shows firefly reporter light, replicate 1 = 4327; firefly reporter light, replicate 2 = 9256; Renilla control light, replicate 1 = 762; Renilla control light, replicate 2 = 2135; inactive.
For hbn (GeneID 47894) #4, the values are firefly reporter light, replicate 1 = 3.06e5; firefly reporter light, replicate 2 = 2.88e5; Renilla control light, replicate 1 = 1.43e5; Renilla control light, replicate 2 = 1.15e5; inactive.
